{
  "source": "patent US20030100572A1",
  "about": "“Novel pyridopyrimidones and uses thereof” (ARIAD PHARMACEUTICALS,INC., priority 2001, published 2003)",
  "test": "Hydroxyapatite Assay (hydroxyapatite adsorption chromatography)",
  "type": "physicochemical",
  "settings": "corrected retention K=(retention time-void time)/void on TSK-Gel HA 1000 HPLC column; linear gradient 10 mM to 500 mM sodium phosphate, 0.15 N NaCl, pH 6.8",
  "from_the_text": "Hydroxyapatite is the principal mineral component of bone. Hydroxyapatite adsorption chromatography is used as an assay to evaluate the bone-targeting potential of both individual bone-targeting moieties (“monomers”) and of pharmaceuticals incorporating bone-targeting groups.\nThe rentention time of the compound is expressed in terms of K=(retention time-void time)/void. This K value is corrected using two reference compounds to correct from inter-column and inter-system variation to obtain a K′ value.\nReference Compounds: K′ values were determined for known bone targeted compounds, the bisphosphonate, alendronate and tetracycline.",
  "note": "At least one compound was matched to its structure with a doubt left.",
  "data": [
    {"smiles": "CN(C)[C@@H]1C(O)=C(C(N)=O)C(=O)[C@@]2(O)C(O)=C3C(=O)c4c(O)cccc4[C@@](C)(O)[C@H]3C[C@@H]12", "note": "[tetracycline]", "values": [
      {"measurement": "K′ value", "result": 2.0}
    ]}
  ]
}
